# Assay results from the supplement of paper PMC12067093, “Discovery and optimisation of a covalent ligand for TRIM25 and its application to targeted protein ubiquitination” (Chemical Science, 2025).
# Chains of the proteins cited; added tags and fusions are not shown. Lines headed by an entry give the natural chain unless they say otherwise; changes in a name come on top.
# UniProt Q96D46: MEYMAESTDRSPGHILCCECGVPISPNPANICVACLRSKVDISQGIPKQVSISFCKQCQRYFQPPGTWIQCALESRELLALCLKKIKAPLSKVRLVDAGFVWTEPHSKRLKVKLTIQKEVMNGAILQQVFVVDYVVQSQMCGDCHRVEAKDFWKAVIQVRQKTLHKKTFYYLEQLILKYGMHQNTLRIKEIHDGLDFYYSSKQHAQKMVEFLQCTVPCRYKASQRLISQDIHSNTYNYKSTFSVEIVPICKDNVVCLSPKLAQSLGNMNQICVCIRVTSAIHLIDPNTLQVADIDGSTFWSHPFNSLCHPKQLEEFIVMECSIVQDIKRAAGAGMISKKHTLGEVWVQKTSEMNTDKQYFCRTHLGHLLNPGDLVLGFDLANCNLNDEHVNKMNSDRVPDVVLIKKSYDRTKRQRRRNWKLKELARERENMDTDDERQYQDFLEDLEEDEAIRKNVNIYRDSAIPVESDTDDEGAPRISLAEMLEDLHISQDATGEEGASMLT
# UniProt Q9NVX2: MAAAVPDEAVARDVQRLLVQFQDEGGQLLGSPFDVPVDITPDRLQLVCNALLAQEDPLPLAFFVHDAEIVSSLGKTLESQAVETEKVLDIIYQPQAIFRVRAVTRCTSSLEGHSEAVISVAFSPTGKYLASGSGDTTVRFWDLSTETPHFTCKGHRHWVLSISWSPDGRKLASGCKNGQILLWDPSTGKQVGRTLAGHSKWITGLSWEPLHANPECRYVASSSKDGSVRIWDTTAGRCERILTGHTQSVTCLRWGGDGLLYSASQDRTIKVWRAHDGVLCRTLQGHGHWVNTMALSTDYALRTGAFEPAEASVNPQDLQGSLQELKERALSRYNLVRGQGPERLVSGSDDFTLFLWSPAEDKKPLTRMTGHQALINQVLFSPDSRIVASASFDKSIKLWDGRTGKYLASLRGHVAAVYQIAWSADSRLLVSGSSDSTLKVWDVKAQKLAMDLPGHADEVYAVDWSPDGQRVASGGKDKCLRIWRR
# UniProt Q9H6R4: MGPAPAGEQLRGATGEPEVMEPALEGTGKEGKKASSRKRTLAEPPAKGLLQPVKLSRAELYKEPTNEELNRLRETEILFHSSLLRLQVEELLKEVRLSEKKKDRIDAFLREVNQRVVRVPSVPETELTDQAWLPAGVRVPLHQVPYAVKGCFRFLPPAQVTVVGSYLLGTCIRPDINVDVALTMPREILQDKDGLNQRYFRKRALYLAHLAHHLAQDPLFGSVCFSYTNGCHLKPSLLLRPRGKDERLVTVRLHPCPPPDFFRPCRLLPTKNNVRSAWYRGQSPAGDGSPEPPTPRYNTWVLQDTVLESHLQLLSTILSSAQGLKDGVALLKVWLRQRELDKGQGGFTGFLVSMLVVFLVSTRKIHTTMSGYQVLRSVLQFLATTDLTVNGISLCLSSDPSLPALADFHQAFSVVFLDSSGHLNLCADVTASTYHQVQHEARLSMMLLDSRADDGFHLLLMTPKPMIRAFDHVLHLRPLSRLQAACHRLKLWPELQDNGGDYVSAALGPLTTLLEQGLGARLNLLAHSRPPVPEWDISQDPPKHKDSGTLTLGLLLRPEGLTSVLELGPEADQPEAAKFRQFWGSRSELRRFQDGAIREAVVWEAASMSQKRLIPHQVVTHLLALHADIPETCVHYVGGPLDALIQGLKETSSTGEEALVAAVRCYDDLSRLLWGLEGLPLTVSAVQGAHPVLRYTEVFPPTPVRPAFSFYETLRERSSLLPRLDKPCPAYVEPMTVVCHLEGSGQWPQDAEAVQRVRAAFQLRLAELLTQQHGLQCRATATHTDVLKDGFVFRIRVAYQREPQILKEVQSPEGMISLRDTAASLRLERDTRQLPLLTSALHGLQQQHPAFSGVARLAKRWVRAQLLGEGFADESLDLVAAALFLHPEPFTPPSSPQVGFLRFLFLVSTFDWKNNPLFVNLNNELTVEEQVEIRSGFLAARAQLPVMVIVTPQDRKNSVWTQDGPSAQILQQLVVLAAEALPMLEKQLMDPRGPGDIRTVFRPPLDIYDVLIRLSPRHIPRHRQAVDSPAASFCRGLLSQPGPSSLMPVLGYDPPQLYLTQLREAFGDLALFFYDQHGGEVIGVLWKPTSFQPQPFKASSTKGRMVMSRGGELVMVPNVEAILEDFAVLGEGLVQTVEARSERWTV
# UniProt Q9Y2X3: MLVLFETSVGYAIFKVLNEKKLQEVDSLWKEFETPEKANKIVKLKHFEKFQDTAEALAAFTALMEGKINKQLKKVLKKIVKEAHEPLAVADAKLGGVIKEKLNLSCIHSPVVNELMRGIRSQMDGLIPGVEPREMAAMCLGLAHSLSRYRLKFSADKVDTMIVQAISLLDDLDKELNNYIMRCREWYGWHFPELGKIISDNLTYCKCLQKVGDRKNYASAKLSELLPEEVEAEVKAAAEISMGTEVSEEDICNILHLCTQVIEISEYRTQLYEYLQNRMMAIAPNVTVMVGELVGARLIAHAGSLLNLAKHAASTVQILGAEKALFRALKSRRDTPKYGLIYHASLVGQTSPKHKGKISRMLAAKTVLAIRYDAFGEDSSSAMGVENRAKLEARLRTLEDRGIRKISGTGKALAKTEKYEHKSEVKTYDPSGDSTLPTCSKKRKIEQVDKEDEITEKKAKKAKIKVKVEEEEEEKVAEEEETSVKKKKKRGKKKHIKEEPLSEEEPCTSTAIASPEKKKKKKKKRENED
# UniProt Q5JPE7: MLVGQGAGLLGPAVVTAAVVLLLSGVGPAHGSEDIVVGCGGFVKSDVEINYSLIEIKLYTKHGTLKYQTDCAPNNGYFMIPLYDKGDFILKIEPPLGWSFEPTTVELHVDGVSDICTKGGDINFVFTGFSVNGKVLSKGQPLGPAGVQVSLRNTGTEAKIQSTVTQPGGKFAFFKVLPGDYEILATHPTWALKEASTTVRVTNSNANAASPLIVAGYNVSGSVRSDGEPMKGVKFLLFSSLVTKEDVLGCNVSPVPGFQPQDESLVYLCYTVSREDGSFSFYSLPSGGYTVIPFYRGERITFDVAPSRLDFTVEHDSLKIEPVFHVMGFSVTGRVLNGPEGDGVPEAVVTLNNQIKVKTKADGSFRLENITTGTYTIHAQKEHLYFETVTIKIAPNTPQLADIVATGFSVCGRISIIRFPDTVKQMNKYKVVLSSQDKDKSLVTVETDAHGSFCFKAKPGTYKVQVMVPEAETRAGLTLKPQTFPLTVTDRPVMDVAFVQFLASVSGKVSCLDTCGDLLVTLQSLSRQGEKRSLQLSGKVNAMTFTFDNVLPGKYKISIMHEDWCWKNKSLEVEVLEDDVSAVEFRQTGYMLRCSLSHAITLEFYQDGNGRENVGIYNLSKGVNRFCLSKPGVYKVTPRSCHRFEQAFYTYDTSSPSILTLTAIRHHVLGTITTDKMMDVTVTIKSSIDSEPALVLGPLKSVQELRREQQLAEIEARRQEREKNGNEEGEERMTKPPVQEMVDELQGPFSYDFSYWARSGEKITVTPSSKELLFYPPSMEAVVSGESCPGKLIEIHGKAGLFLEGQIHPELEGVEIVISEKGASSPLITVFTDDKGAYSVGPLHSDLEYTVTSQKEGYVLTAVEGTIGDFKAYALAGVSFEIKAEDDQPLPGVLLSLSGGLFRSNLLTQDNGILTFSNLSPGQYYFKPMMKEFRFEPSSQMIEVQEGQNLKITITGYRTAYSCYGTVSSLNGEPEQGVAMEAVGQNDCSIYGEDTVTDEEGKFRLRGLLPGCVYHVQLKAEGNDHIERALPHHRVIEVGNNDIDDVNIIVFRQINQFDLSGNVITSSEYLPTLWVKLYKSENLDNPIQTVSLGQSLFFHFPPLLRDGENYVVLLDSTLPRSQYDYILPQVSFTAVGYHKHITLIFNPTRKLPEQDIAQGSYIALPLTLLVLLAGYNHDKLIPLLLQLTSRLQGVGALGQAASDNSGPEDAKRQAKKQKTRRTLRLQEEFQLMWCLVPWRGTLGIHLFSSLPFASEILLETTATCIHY
# UniProt Q8WX94: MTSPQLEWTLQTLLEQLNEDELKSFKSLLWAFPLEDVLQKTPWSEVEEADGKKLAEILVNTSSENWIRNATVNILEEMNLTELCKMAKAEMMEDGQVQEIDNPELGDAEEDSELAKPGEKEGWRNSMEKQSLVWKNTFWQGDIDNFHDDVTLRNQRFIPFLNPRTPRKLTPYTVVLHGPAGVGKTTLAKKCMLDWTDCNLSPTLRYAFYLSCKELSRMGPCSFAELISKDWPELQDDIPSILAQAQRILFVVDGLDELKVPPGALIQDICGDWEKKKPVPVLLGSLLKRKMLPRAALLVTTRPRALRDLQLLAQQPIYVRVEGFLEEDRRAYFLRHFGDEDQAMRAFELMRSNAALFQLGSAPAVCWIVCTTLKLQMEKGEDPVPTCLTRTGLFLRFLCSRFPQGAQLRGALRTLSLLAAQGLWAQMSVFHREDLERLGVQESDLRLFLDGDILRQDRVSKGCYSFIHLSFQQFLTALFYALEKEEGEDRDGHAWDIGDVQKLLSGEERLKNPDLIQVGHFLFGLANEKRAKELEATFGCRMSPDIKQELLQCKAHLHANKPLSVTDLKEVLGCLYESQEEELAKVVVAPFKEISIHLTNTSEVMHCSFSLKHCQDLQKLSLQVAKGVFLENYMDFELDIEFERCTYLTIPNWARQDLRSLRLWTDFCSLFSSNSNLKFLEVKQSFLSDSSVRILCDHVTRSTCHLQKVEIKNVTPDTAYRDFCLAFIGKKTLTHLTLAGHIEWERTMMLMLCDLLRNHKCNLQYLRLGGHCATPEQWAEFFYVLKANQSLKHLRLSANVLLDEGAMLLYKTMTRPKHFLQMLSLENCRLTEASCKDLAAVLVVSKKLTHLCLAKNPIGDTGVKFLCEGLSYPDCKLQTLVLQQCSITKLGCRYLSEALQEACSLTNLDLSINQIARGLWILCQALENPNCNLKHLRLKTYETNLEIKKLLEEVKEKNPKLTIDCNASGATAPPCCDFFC
# UniProt Q86U38: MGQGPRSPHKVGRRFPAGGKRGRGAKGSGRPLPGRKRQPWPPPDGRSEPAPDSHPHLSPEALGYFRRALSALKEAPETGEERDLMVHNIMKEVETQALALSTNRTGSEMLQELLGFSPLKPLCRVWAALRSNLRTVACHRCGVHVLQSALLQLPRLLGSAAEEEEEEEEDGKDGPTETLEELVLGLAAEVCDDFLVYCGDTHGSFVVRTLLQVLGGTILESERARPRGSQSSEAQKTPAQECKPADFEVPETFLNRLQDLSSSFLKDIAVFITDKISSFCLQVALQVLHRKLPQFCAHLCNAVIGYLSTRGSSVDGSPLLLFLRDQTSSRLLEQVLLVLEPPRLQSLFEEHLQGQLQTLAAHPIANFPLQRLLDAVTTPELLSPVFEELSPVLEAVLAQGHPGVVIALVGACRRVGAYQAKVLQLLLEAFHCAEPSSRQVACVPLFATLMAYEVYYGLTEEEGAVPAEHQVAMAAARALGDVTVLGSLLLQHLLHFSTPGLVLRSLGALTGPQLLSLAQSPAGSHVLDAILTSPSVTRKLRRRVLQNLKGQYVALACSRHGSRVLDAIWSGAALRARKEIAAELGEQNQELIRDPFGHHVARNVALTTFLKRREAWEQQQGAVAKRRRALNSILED
# UniProt Q9BVI4: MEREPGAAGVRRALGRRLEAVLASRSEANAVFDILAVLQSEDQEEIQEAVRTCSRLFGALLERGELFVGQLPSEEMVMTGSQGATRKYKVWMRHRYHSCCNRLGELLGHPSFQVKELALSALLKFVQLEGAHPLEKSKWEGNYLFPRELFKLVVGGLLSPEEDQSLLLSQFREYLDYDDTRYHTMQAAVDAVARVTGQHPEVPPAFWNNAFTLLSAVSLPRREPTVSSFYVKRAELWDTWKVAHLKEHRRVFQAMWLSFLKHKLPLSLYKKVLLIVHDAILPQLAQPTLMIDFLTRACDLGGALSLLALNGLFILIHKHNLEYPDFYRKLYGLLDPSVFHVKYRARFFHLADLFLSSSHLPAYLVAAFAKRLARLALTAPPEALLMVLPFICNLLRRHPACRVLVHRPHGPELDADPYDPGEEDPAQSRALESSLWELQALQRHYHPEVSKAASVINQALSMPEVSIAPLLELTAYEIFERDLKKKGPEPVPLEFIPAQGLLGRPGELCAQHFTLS
# UniProt P10588: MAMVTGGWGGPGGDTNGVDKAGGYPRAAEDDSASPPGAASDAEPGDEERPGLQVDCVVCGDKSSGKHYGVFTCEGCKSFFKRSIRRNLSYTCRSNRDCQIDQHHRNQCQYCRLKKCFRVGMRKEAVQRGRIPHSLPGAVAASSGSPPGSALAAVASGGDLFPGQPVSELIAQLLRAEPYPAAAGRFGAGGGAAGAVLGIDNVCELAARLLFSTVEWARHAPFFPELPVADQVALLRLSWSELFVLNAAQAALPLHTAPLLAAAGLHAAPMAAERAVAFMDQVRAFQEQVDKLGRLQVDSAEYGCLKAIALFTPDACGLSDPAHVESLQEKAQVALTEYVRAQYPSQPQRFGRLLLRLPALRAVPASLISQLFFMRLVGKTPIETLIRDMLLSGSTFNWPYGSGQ
# The other results are listed elsewhere or left out.
# Compound: Cc1cc(ccc1-c1ccccc1)C(=O)N1CCCN(CC1)C(=O)CCl [compound 10]
# Experiment: probe-labelled cysteine peptide fold change vs DMSO (competition) (log2 fold change); higher = less target engagement (more negative = stronger competition)
# Settings: 10 µM; THP-1; incubation time: 4 h
# 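Note: competitive profiling in live THP-1 cells: cysteine peptides tagged with an iodoacetamide desthiobiotin (IA-DTB) probe, intensity after compound treatment relative to DMSO-treated cells.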
row,Target,probe-labelled cysteine peptide fold change
1,NOL8_Q76FK4_517_SDGPETTTQCK (UniProt Q76FK4),0.046
2,NT5C3A_Q9H0P0_73_IKNPTRVEEIICGLIK (UniProt Q9H0P0),0.0602
3,NLRX1_Q86UT6_779_DLRDLLLHDQCQITTLR (UniProt Q86UT6),-0.0237
4,NMD3_Q96D46_214+218_MVEFLQCTVPCR (UniProt Q96D46),0.0333
5,NLE1_Q9NVX2_216_WITGLSWEPLHANPECR (UniProt Q9NVX2),0.0851
6,NOL6_Q9H6R4_486_LQAACHR (UniProt Q9H6R4),0.0765
7,NMI_Q13287_230_EYPLYINQTCHR (UniProt Q13287),-0.0738
8,NOP58_Q9Y2X3_139_EMAAMCLGLAHSLSR (UniProt Q9Y2X3),0.189
9,NOMO2_Q5JPE7_411_IAPNTPQLADIVATGFSVCGR (UniProt Q5JPE7),0.151
10,NLRP7_Q8WX94_540_ELEATFGCR (UniProt Q8WX94),-0.00791
11,NOP9_Q86U38_123_TGSEMLQELLGFSPLKPLCR (UniProt Q86U38),-0.129
12,NOC4L_Q9BVI4_100_YHSCCNR (UniProt Q9BVI4),0.067
13,NSMAF_Q92636_803_EGTVNIWDLTTATLMHQIPCHSGIVCDTAFSPDSR (UniProt Q92636),0.177
14,NR2F6_P10588_316_AIALFTPDACGLSDPAHVESLQEK (UniProt P10588),-0.711
15,NOTCH1_P46531_2140_SPQLHGAPLGGTPTLSPPLCSPNGYLGSLKPGVQGK (UniProt P46531),-0.633
16,NOP58_Q9Y2X3_106_LNLSCIHSPVVNELMR (UniProt Q9Y2X3),-0.0637
